Test results published in article doi:10.1101/2021.03.20.435662.
No constants are given. Whether binding was seen depends on the method and setting. Some results given as binding are weak or reduced against the parent protein; the word gives no strength. Sequences can lack the tags named with a protein.

T1: CROWDED NUCLEI 1 (CRWN1), yeast two-hybrid fusion (Arabidopsis thaliana) (UniProt F4HRT5)
T1 sequence: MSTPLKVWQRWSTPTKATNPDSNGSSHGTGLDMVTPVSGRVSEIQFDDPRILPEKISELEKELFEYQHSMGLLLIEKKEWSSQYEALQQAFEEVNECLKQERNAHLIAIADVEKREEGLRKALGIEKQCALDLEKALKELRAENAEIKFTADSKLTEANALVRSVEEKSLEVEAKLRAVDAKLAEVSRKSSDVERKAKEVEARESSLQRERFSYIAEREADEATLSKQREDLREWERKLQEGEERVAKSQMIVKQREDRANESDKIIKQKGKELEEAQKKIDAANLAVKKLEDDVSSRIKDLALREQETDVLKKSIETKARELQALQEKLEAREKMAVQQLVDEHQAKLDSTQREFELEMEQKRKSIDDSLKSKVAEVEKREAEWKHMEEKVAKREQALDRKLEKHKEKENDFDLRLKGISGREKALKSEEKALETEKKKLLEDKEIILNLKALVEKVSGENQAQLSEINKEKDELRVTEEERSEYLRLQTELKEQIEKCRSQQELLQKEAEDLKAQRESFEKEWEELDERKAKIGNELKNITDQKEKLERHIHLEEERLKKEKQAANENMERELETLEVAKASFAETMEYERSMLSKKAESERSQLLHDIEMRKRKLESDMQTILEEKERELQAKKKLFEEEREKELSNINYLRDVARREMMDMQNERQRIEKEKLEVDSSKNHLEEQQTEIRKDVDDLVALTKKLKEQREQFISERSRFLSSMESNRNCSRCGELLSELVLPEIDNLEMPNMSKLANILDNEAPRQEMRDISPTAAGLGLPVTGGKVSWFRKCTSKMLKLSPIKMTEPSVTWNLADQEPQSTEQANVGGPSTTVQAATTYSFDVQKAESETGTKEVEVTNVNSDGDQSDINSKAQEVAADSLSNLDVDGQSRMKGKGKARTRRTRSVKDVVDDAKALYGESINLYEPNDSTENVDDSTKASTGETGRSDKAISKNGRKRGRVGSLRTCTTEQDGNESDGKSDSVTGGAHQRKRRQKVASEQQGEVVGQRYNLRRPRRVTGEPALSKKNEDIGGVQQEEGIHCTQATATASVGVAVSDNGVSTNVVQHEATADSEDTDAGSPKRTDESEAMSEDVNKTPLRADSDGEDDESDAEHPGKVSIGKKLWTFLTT

T2: CROWDED NUCLEI 4 (CRWN4), yeast two-hybrid fusion (Arabidopsis thaliana) (UniProt Q9FLH0)
T2 sequence: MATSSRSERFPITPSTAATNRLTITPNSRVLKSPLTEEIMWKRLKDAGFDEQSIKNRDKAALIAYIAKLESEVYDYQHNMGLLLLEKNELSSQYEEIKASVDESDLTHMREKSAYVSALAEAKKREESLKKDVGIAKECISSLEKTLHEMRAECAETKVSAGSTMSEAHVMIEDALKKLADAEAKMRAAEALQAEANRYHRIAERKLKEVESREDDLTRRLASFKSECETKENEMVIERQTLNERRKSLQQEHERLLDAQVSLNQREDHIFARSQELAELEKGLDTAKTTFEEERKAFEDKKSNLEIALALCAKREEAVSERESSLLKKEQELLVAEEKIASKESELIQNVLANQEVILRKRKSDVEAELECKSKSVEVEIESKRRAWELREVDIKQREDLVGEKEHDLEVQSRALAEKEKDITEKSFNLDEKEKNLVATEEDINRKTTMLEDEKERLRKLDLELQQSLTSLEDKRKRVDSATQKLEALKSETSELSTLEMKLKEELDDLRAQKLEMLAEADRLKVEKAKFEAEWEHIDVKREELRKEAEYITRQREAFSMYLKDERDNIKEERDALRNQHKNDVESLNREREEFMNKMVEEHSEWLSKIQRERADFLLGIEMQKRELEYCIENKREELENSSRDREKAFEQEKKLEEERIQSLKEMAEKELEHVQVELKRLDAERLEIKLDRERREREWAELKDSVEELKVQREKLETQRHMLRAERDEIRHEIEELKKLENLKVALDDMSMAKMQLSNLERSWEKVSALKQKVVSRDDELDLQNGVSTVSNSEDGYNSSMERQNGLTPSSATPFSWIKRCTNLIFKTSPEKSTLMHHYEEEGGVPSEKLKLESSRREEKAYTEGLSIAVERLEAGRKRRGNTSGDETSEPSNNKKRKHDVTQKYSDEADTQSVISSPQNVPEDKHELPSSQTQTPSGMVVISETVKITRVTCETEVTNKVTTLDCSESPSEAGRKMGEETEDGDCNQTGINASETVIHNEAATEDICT


Legend:
[1] = target: T1, CROWDED NUCLEI 1 (CRWN1), yeast two-hybrid fusion (Arabidopsis thaliana); assay: two-hybrid
[2] = target: T2, CROWDED NUCLEI 4 (CRWN4), yeast two-hybrid fusion (Arabidopsis thaliana); assay: two-hybrid

| binding [1] | binding [2] | Binder |
| --- | --- | --- |
| binds | no binding | KAKU4 N-terminus (1-310), yeast two-hybrid fusion (domain or fragment, UniProt Q949W6-2 1-310) MDSVSGYAAGAGQPRVGGKIVRPRRTAVVRTPCERPVQRSRDPPQQNPSWISRLVYKPASVIASGAGKFISSVVFSDSSSSSEEDEDSSSDIDGDEDVEKNNPDFTEEDLLSAQQPSIQRLSSKRVIEQLLLQETFAREEGDRLIDIIKARVVDHPSVPSAIETSHDDYGLTSDVNVGEMSNTAVMEARKWLEEKKSGSSSKYKATEDGAGSPVDVAKSYMRARLPWGSPAANNLDFRSPSSARVQGTPLPYSAGNFSSSKLKRKSGSNQSWNIQDEIRKVRAKATEEMLKSPSSVASLEPKYSPYVLAT |
| binds | no binding | KAKU4 full-length protein (amino-acids 1-574), yeast two-hybrid fusion (protein, UniProt Q949W6-2 1-574) MDSVSGYAAGAGQPRVGGKIVRPRRTAVVRTPCERPVQRSRDPPQQNPSWISRLVYKPASVIASGAGKFISSVVFSDSSSSSEEDEDSSSDIDGDEDVEKNNPDFTEEDLLSAQQPSIQRLSSKRVIEQLLLQETFAREEGDRLIDIIKARVVDHPSVPSAIETSHDDYGLTSDVNVGEMSNTAVMEARKWLEEKKSGSSSKYKATEDGAGSPVDVAKSYMRARLPWGSPAANNLDFRSPSSARVQGTPLPYSAGNFSSSKLKRKSGSNQSWNIQDEIRKVRAKATEEMLKSPSSVASLEPKYSPYVLATDMLKGNASSLNADGAVRNEQSRALPNSAIPTSEHNQTTEANQAVKETGVLHTRSRGVGLEETFISTQGVKPSEDTNTAPQSGTAVDDFNDQDGDFIQPTSTIGNTTNAVLALGATLDPTGNSCIPKDVFETSKEADEIGASRHTSNGFPSSSPSSPAVMEGQPKPTPPEETKASQPIAEIHGDDMTVGNGSDGAINNESNDSHSSASNSSSTHEEEWLPGDQSLPNSNSASSSPGNTKVLAYSRRGRGRGRGRGRGGRGKGRAK |
| no binding | no binding | KAKU4 C-terminus (311-574), yeast two-hybrid fusion (domain or fragment, UniProt Q949W6-2 311-574) DMLKGNASSLNADGAVRNEQSRALPNSAIPTSEHNQTTEANQAVKETGVLHTRSRGVGLEETFISTQGVKPSEDTNTAPQSGTAVDDFNDQDGDFIQPTSTIGNTTNAVLALGATLDPTGNSCIPKDVFETSKEADEIGASRHTSNGFPSSSPSSPAVMEGQPKPTPPEETKASQPIAEIHGDDMTVGNGSDGAINNESNDSHSSASNSSSTHEEEWLPGDQSLPNSNSASSSPGNTKVLAYSRRGRGRGRGRGRGGRGKGRAK |
